Hit rate of the full screen: of about 1,400 compounds, about 45 (3%) were called active.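 Rule for the calls: active = half-maximal dose of signal decrease from fit no higher than ten times the top valid tested dose; inconclusive = fit invalid, or curve flat with 30 to 70% inhibition; inactive = the rest.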 This is one part of the list. Potency and affinity values are given separately.
These molecules were tested against Lysine-specific demethylase 4A (Homo sapiens) (UniProt O75164) (assay: inhibition of JMJD2A H3K9me3 demethylation – biochemical, DELFIA europium, cherry-picked samples, selectivity assay for GASC-1 inhibitor project, dose response (AID 488840;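 note: europium signal reports the dimethyl H3K9 product detected by antibody so inhibitors lower it; 0% = median of neutral control wells and -100% = median of positive control wells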)). Details: GST-JMJD2A(1-420) H3K9me3 demethylation; at 6 µM (top of the series) unless noted.

The chains behind the UniProt entries cited, without tags or fusion partners. Where a name states a change or a piece, a line headed by the entry shows the natural chain unless it says otherwise.
UniProt O75164: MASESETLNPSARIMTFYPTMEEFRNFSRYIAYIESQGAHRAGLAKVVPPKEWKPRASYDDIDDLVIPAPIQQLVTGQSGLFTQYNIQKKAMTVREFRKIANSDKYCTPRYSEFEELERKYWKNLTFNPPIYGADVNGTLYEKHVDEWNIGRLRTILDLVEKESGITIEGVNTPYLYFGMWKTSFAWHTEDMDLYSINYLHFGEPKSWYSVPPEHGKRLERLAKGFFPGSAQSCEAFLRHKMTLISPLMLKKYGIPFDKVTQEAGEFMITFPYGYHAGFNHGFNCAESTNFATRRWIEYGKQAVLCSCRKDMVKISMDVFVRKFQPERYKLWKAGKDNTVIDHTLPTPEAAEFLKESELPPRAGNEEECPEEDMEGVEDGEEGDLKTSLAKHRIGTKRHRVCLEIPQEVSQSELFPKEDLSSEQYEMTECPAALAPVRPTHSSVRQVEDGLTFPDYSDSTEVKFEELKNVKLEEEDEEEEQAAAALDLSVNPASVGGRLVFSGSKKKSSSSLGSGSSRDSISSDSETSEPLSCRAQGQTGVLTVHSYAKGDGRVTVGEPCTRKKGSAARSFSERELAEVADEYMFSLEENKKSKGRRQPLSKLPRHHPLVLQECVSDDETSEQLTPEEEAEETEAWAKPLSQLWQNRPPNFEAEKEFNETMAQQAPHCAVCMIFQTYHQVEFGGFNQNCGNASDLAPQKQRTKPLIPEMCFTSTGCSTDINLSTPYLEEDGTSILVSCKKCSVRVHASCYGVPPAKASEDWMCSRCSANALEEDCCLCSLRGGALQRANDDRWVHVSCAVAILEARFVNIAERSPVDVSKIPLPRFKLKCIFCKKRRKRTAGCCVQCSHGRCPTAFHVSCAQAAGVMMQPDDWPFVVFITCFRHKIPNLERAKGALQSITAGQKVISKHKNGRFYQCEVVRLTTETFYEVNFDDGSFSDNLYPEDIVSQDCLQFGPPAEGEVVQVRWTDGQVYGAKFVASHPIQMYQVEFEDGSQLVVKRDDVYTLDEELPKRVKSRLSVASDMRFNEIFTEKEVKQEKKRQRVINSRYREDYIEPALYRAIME

Activity change, negative = inhibition, inactive:
O=C(/C=C\Nc1ccc(Cl)cn1)c1ccc(Br)cc1 -11.2%
COc1cccc(NC(=O)CCN2C(=O)C3CC=CCC3C2=O)c1 (configuration not stated) -1.22%
CC1=NN(C(=O)Cc2ccccc2)C(O)(c2cccnc2)C1 (configuration not stated) 2.71%
COC(C(=O)Nc1ccc(NC(=O)C(OC)c2ccccc2)cc1)c1ccccc1 (configuration not stated) 3.15%
CCN(C[C@H]1N[C@@](Cc2ccccc2)(C(=O)OC)[C@H]2C(=O)N(Cc3ccccc3)C(=O)[C@@H]12)S(=O)(=O)c1ccccc1 -6.78%
COc1ccc(NC(=O)N(C)C[C@H]2Oc3c(NS(=O)(=O)c4cccs4)cccc3C(=O)N([C@@H](C)CO)C[C@@H]2C)cc1 -0.422%
COC(=O)C1CN(S(=O)(=O)c2ccc(C)cc2)CCN1S(=O)(=O)c1ccc(C)cc1 (configuration not stated) 12.5%
CCCN(CCC)CCNC(=O)CS(=O)Cc1nc(-c2ccc(C)cc2)oc1C (configuration not stated) -2.48%
Cc1noc(C)c1CCC(=O)N1CCCC(CCC(=O)NCc2ccccc2F)C1 (configuration not stated) -5.05%
Cc1cc(NC(=O)CCC(=O)N(c2ccccc2)C2(C(=O)NC3CCCCC3)CCCC2)no1 -3.43%
CC(=O)c1c(C)[nH]c(C(=O)NCCC2=CCCCC2)c1C 2.99%
O=C(NCc1cccs1)c1cccnc1C(=O)O 5.03%
O=c1cc(N2CCc3ccccc32)[nH]c(=O)n1-c1ccccc1 4.98%
CCOC(=O)N1CCN(S(=O)(=O)c2ccc3c(c2)CCN3C(=O)C2CC2)CC1 -4.45%
CN1C(=O)/C(=C2\SC(=S)N(C(CCC(=O)O)C(=O)O)C2=O)c2ccccc21 (configuration not stated) 4.78%
O=C(O)CC(NC(=O)Cc1ccc(Cl)cc1)c1ccco1 (configuration not stated) -1.11%
CC12CN3CC(C)(CN(C1)C3c1ccc3ccccc3c1O)C2=O (configuration not stated) 5.64%
CN1CCN(C(=O)CN(c2ccccc2)S(=O)(=O)N(C)C)CC1 1.41%
C/C=C(\C)c1nnc(NC(=O)C(C)C)s1 1.51%
CN(C)c1ccc(C2Nc3ccccc3C(=O)N2CCN2CCNC2=O)cc1 (configuration not stated) -1.57%
CCc1nc(NCc2ccc3c(c2)OCO3)c2oc3ccccc3c2n1 5.18%
CCOC(=O)N1CCN(C(=S)NC(C)(C)C)CC1 -1.77%
CN(C)C(=O)c1cccc(-c2csc(N3CCC(C(N)=O)CC3)n2)c1 4.05%
O=C1CCCc2c1nc(-c1ccccc1)n2O 0.474%
COC(=O)c1ccc(/C=C/c2c(-c3ccc(OC)cc3)sc3ccccc23)cc1 -2.96%
COC(=O)c1nn(Cc2ccccc2)c(=O)c2ccccc12 -7.25%
O=S(=O)(Nc1ccccc1)c1ccc(NS(=O)(=O)c2c(F)cccc2F)cc1 8.5%
CCOC(=O)C1=C(CSc2nc(-c3ccncc3)ccc2C#N)OC(N)=C(C#N)C1c1cccnc1 (configuration not stated) 5.11%
COc1ccc2c(C)nc(Nc3nc(C)cc(C)n3)nc2c1 -3.52%
COc1cc2nc(-c3ccccc3C)oc(=O)c2cc1OC 5.38%
C/C(=N\Nc1nc(C(=O)O)cs1)c1ccccc1 1.97%
C=CCn1c(-c2cccc3ccccc23)n[nH]c1=S -1.82%
O=C(CNC(=O)c1ccccc1O)N/N=C/c1cc(Br)ccc1OC(=O)/C=C/c1ccco1 -7.8%
CCCn1nnnc1SCC(=O)NCc1ccc2c(c1)OCO2 0.509%
COC(=O)c1ccc(CSc2nnc(N)s2)o1 2.55%
COc1ccccc1N=Cc1c(C)c(C#N)c2[nH]c3ccccc3n2c1=O 1.5%
C[C@H]1CN([C@@H](C)CO)C(=O)c2cc(NC(=O)C3CCCCC3)ccc2O[C@H]1CN(C)S(=O)(=O)c1ccccc1 1.07%
COC(=O)[C@]1(C)N[C@H](CN(C)C(=O)Nc2ccc(F)cc2)[C@@H]2C(=O)N(C)C(=O)[C@@H]21 -4.71%
COc1ccc(Nc2cccc(Cl)c2)c(C(=O)O)c1 0.373%
Cc1ccsc1C(=O)OCc1nc2ccccc2c(=O)[nH]1 -0.563%
COc1ccccc1Nc1ncnc2ccccc12 4.58%
C=CCOC(=O)C1=C(C)NC(=O)NC1c1ccc(OC(=O)c2ccco2)c(OC)c1 (configuration not stated) -6.19%
Cc1cccc(C)c1NC1=NC(=S)N(c2ccc(C(=O)O)cc2)C12CCCCC2 -1.89%
Cc1cccc(C)c1NC(=S)NN(Cc1ccccc1)c1ccccc1 -6.29%
Nc1ccc(S(=O)(=O)NC2(C(F)(F)F)NC(=O)N(c3ccc(F)cc3)C2=O)cc1 (configuration not stated) 0.62%
CCCc1nnc(SCC(=O)N2CCCC2)n1CC1CCCO1 (configuration not stated) 6.01%
CCOc1ccc(NC(=O)CSc2nnc(-c3ccccc3)n2N)cc1 -4.84%
NNC(=O)c1nn(-c2ccc(Cl)cc2)ccc1=O -3.37%
C=CCn1cnc2scc(-c3ccc(C)cc3)c2c1=O 1.31%
Cc1ccc(N2CC(C(=O)Nc3ccc(N(C)C)cc3)CC2=O)cc1C (configuration not stated) -0.0994%
Cc1cccc(NC(=S)N(CCN2CCOCC2)Cc2cc3cc4c(cc3[nH]c2=O)OCO4)c1 0.379%
Cn1c2c(c(=O)n(C)c1=O)CN(CCCN1CCOCC1)CN2 -1.93%
CCOC(=O)c1[nH]c(C)c(/C(O)=C2\C(=O)C(=O)N(CCCN(CC)CC)C2c2cccnc2)c1C (configuration not stated) -0.856%
COc1ccc(/C=C/C(=O)NC(=S)NNC(=O)Cc2cccs2)cc1OC -3.45%
Cc1cc(=O)[nH]c(SCC(=O)Nc2ncc(S(=O)(=O)c3ccc([N+](=O)[O-])cc3)s2)n1 0.585%
CC1CCCCC12NC(=O)N(CC(=O)NCCc1ccccn1)C2=O (configuration not stated) -0.817%
C[C@H]1CN([C@@H](C)CO)C(=O)c2cccc(NC(=O)C3CC3)c2O[C@H]1CN(C)Cc1ccncc1 -4.04%

Arranged by heavy-atom count (rising): part of the list above
Activity change, negative = inhibition, inactive:
COC(=O)c1ccc(CSc2nnc(N)s2)o1 2.55%
Cn1c2c(c(=O)n(C)c1=O)CN(CCCN1CCOCC1)CN2 -1.93%
CN(C)C(=O)c1cccc(-c2csc(N3CCC(C(N)=O)CC3)n2)c1 4.05%

— PubChem BioAssay AID488840 (Broad Institute, 2010)
